# Marks after values point to notes of the source that are not given here.
# B1: Leptin (protein, UniProt P41160 22-167, looked up)
# Leptin: VPIQKVQDDTKTLIKTIVTRINDISHTQSVSAKQRVTGLDFIPGLHPILSLSKMDQTLAVYQQVLTSLPSQNVLQIANDLENLRDLLHLLAFSKSCSLPQTSGLQKPESLDGVLEASLYSTEVVALSRLQGSLQDILQQLDVSPEC
# notes: recombinant mouse leptin from National Hormones and Peptides Program; multiplex kit standard in recovery tests
# Experiments:
# [1] = Recovery of peptides added to rat plasma, measured with multiplex magnetic bead assay; conditions: for Slope (recovery), Multiplex extracted lean: lean plasma pool, 1 mL, solid-phase extracted (OASIS HLB) before assay, extractions in triplicate; for Slope (recovery), Multiplex extracted lean / Slope (recovery), Multiplex unextracted lean: inhibitors added to thawed pool just before peptides; for Slope (recovery), Multiplex extracted lean / Slope (recovery), Multiplex extracted lean, inhibitors added at time of blood collection / Slope (recovery), Multiplex extracted obese, inhibitors added at time of blood collection: regression slope (x100 = % recovery); for Slope (recovery), Multiplex extracted lean / Slope (recovery), Multiplex extracted lean, inhibitors added at time of blood collection / Slope (recovery), Multiplex extracted obese, inhibitors added at time of blood collection / Slope (recovery), Multiplex unextracted lean: mean ± SE; for Slope (recovery), Multiplex extracted lean, inhibitors added at time of blood collection: lean plasma, enzyme inhibitors in EDTA tubes at blood collection; for Slope (recovery), Multiplex extracted lean, inhibitors added at time of blood collection / Slope (recovery), Multiplex extracted obese, inhibitors added at time of blood collection: solid-phase extracted; for Slope (recovery), Multiplex extracted obese, inhibitors added at time of blood collection: plasma of fed DIO rats, enzyme inhibitors at blood collection; for average recovery, multiplex assay, unextracted spiked lean plasma / recovery, multiplex assay, extracted lean plasma: inhibitors added just before peptides; for average recovery, multiplex assay, unextracted spiked lean plasma: slope x100; for Slope (recovery), Multiplex unextracted lean: unextracted plasma pool of fasted lean rats, multiplex standards added at three concentrations, regression slope measured vs expected (x100 = % recovery); for recovery, multiplex assay, extracted lean plasma: 1 mL lean plasma solid-phase extracted before assay
# [2] = Recovery of peptides added to rat plasma, measured with individual ELIAs; conditions: for Slope (recovery), ELIA extracted lean: lean plasma pool, 1 mL, solid-phase extracted (OASIS HLB) before assay, extractions in triplicate, inhibitors added to thawed pool just before peptides, regression slope (x100 = % recovery); for Slope (recovery), ELIA extracted lean / Slope (recovery), ELIA unextracted lean: mean ± SE; for Slope (recovery), ELIA unextracted lean: unextracted plasma pool of fasted lean rats, multiplex standards added at three concentrations, enzyme inhibitors added to thawed pool just before peptides, regression slope of measured vs expected concentration (x100 = % recovery); for mean peptide recovery, ELIA, unextracted spiked lean plasma / recovery, ELIA, extracted lean plasma: inhibitors added just before peptides; for mean peptide recovery, ELIA, unextracted spiked lean plasma: slope x100; for recovery, ELIA, extracted lean plasma: 1 mL lean plasma solid-phase extracted before assay
# [3] = second experiment, inhibitors added at time of blood collection
Molecule,"Slope (recovery), Multiplex extracted lean [1]","Slope (recovery), Multiplex extracted lean, inhibitors added at time of blood collection ([1]; second experiment)","Slope (recovery), Multiplex extracted obese, inhibitors added at time of blood collection ([1]; second experiment)","average recovery, multiplex assay, unextracted spiked lean plasma [1] [%]","Slope (recovery), Multiplex unextracted lean [1]","recovery, multiplex assay, extracted lean plasma, inhibitors at blood collection [1, 3] [%]","recovery, multiplex assay, extracted obese plasma, inhibitors at blood collection ([1]; second experiment, obese (fed DIO) plasma extracted, inhibitors added at time of blood collection) [%]","Slope (recovery), ELIA extracted lean [2]","Slope (recovery), ELIA unextracted lean [2]","mean peptide recovery, ELIA, unextracted spiked lean plasma [2] [%]","recovery, ELIA, extracted lean plasma [2] [%]","recovery, multiplex assay, extracted lean plasma [1] [%]"
CC(C)C[C@H](NC(=O)[C@H](CC(N)=O)NC(=O)[C@H](CC(N)=O)NC(=O)[C@H](CO)NC(=O)[C@H](CO)NC(=O)[C@H](CCCNC(=N)N)NC(=O)[C@@H](NC(=O)[C@H](CC(C)C)NC(=O)[C@H](Cc1ccccc1)NC(=O)[C@H](CC(N)=O)NC(=O)[C@H](C)NC(=O)[C@H](CC(C)C)NC(=O)[C@H](CCCNC(=N)N)NC(=O)[C@H](CCC(N)=O)NC(=O)[C@@H](NC(=O)[C@H](C)NC(=O)[C@@H]1CSSC[C@H](NC(=O)[C@@H](N)CCCCN)C(=O)N[C@@H](CC(N)=O)C(=O)N[C@@H]([C@@H](C)O)C(=O)N[C@@H](C)C(=O)N[C@@H]([C@@H](C)O)C(=O)N1)[C@@H](C)O)C(C)C)C(=O)NCC(=O)N1CCC[C@H]1C(=O)N[C@H](C(=O)N[C@@H](CC(C)C)C(=O)N1CCC[C@H]1C(=O)N1CCC[C@H]1C(=O)N[C@H](C(=O)N[C@@H](CC(N)=O)C(=O)N[C@H](C(=O)NCC(=O)N[C@@H](CO)C(=O)N[C@@H](CC(N)=O)C(=O)N[C@H](C(=O)N[C@@H](Cc1ccc(O)cc1)C(N)=O)[C@@H](C)O)C(C)C)[C@@H](C)O)C(C)C [Amylin],0.75 ± 0.05,0.53 ± 0.05,0.49 ± 0.04,133,1.33 ± 0.01 ^b,–,–,–,–,–,–,–
"CC[C@H](C)[C@H](NC(=O)[C@H](Cc1ccccc1)NC(=O)[C@H](CCC(=O)O)NC(=O)[C@H](CCCCN)NC(=O)[C@H](C)NC(=O)[C@H](C)NC(=O)[C@H](CCC(N)=O)NC(=O)CNC(=O)[C@H](CCC(=O)O)NC(=O)[C@H](CC(C)C)NC(=O)[C@H](Cc1ccc(O)cc1)NC(=O)[C@H](CO)NC(=O)[C@H](CO)NC(=O)[C@@H](NC(=O)[C@H](CC(=O)O)NC(=O)[C@H](CO)NC(=O)[C@@H](NC(=O)[C@H](Cc1ccccc1)NC(=O)[C@@H](NC(=O)CNC(=O)[C@H](CCC(=O)O)NC(=O)[C@H](C)NC(=O)[C@@H](N)Cc1c[nH]cn1)[C@@H](C)O)[C@@H](C)O)C(C)C)C(=O)N[C@@H](C)C(=O)N[C@@H](Cc1c[nH]c2ccccc12)C(=O)N[C@@H](CC(C)C)C(=O)N[C@H](C(=O)N[C@@H](CCCCN)C(=O)NCC(=O)N[C@@H](CCCNC(=N)N)C(N)=O)C(C)C [GLP‐1, Glucagon‐like peptide‐1]",0.52 ± 0.05,0.42 ± 0.06,0.59 ± 0.03 ^d,77,0.77 ± 0.01 ^b,42,59,–,–,–,–,–
GIP,0.56 ± 0.05,0.33 ± 0.03,0.21 ± 0.10,89,0.89 ± 0.04,–,–,0.71 ± 0.06,0.92 ± 0.04,–,–,–
Ghrelin,0.20 ± 0.02,0.47 ± 0.10,0.53 ± 0.06,26,0.26 ± 0.01 ^b,–,–,0.22 ± 0.03,0.47 ± 0.02,47,–,–
Insulin,0.27 ± 0.03 ^c,0.44 ± 0.04,0.62 ± 0.07,55,0.55 ± 0.01 ^b,–,–,0.59 ± 0.05,0.91 ± 0.01,–,59,27
B1,0.17 ± 0.05,0.08 ± 0.02,0.14 ± 0.07,29,0.29 ± 0.01 ^b,8,–,0.28 ± 0.08,1.00 ± 0.04,100,28,17

# Reference: publication PMC4886168, “Effects of solid‐phase extraction of plasma in measuring gut metabolic hormones in fasted and fed blood of lean and diet‐induced obese rats” (Physiological Reports, 2016)
